The experiment has as its target PSMB10 (human (endogenous in THP-1)) (UniProt P40306). Put plainly: co-IP; endogenous proteins from THP-1 lysate (25 mM Tris-HCl, 150 mM NaCl, 1 mM EDTA, 1% NP-40), precipitated with the indicated antibody and Protein A/G Plus-agarose at 4 °C, western blot; WT THP-1 cells, for RPS6 or RPL6 with MDM2 also shPSMB10-transfected THP-1 cells. Background: A western blot detects proteins with antibodies after separation by electrophoresis.

Amino acid sequences for entries named in this document (tags omitted). A change or cut given only in a name is not applied to a line headed by its entry.
UniProt P40306: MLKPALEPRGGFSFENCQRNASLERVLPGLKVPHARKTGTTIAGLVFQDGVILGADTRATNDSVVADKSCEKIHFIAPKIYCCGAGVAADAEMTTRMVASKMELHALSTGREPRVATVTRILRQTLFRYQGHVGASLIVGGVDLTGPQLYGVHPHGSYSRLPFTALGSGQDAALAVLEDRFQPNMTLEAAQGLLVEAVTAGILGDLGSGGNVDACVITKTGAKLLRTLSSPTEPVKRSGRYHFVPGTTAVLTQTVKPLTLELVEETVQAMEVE

These are yes or no findings as the source states them, for the method shown. Binding seen in cells or lysates may run through a third protein. Binding calls can cover weak binding; strength is not graded here.

B1: SLC22A16 (protein, UniProt Q86VW1 1-577)
chain: MGSRHFEGIYDHVGHFGRFQRVLYFICAFQNISCGIHYLASVFMGVTPHHVCRPPGNVSQVVFHNHSNWSLEDTGALLSSGQKDYVTVQLQNGEIWELSRCSRNKRENTSSLGYEYTGSKKEFPCVDGYIYDQNTWKSTAVTQWNLVCDRKWLAMLIQPLFMFGVLLGSVTFGYFSDRLGRRVVLWATSSSMFLFGIAAAFAVDYYTFMAARFFLAMVASGYLVVGFVYVMEFIGMKSRTWASVHLHSFFAVGTLLVALTGYLVRTWWLYQMILSTVTVPFILCCWVLPETPFWLLSEGRYEEAQKIVDIMAKWNRASSCKLSELLSLDLQGPVSNSPTEVQKHNLSYLFYNWSITKRTLTVWLIWFTGSLGFYSFSLNSVNLGGNEYLNLFLLGVVEIPAYTFVCIAMDKVGRRTVLAYSLFCSALACGVVMVIPQKHYILGVVTAMVGKFAIGAAFGLIYLYTAELYPTIVRSLAVGSGSMVCRLASILAPFSVDLSSIWIFIPQLFVGTMALLSGVLTLKLPETLGKRLATTWEEAAKLESENESKSSKLLLTTNNSGLEKTEAITPRDSGLGE
Consider B1, for which the binding entry is listed as “binds”.

Values taken from paper PMC12131556.
